36 molecules from PubChem BioAssay AID2685 (National Center for Advancing Translational Sciences (NCATS), 2010) can be followed below.

Molecules are shown by their SMILES. Some of the results follow. Further columns of the screen follow, without active or inactive calls. The list favours compounds with an active or inconclusive main result. The note in brackets gives the kind of curve behind each potency; many fits are weak.

A short description of the assay: qHTS Assay for Lipid Storage Modulators in Drosophila S3 Cells.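 As to cell number change: cells counted by Cell Tracker Red CMTPX staining in the red channel.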 Conditions: BODIPY lipid droplet fluorescence, 18-24 h; for cell number change: measured here: cell count max response, cells fed with added oleic acid. In short, it runs like this:
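Drosophila S3 cells got compounds at several concentrations plus oleic acid (400 uM solution). Laser-scanning cytometry with 488 nm excitation read lipid droplets at 500-530 nm and cells at 575-640 nm. Percent activity was relative to 20 uM Triacsin C.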

Where [1] appears, read: measured here: cell number channel AC50, cells fed with added oleic acid.
[2] abbreviates: measured here: lipid fluorescence (Fed channel) AC50, cells fed with added oleic acid.

On to `CCOc1cc(N(CC)CC)ccc1/C=C(/C#N)c1nc2ccccc2[nH]1`, for which the cell number change was -93.8%. In addition, the AC50 under setting [1] is 2.59 µM [falling, partial curve]. In addition, under setting [2], the AC50 is 0.259 µM [falling, full curve].

Regarding `Cc1cccc(NC(=S)NC2CC3CCC(C2)N3Cc2ccco2)c1` (stereo not given), the cell number change is -21.7%. Also, the half-maximal activity concentration (AC50) under setting [1] is 0.0731 µM [falling, full curve, poor fit].

With `Cc1cc(C)cc(N(CCC#N)C(=O)COC(=O)CCc2c[nH]c3ccccc23)c1`, the cell number change is -9.33%.

Consider `COCCCNC(=O)/C=C/c1cccc(Cl)c1`, for which the cell number change is -76.7%. In addition, the AC50 under setting [1] is 29.1 µM [falling, single point].

On to `COc1ccc(-c2nnc(SC(C)C(=O)NCc3ccc4c(c3)OCO4)n2Cc2ccco2)cc1` (stereo not given), for which the cell number change was 63.3%. In addition, the half-maximal activity concentration (AC50) under setting [1] is 6.51 µM [rising, partial curve]. In addition, under setting [2], the AC50 is 10.3 µM [rising, partial curve, poor fit].

With `COc1ccc(-c2nn(-c3ccccc3)cc2C(=O)N2c3ccc(C)cc3C3CN(C)CCC32)cc1` (stereo not given), the cell number change worked out at 56%. Moreover, the half-maximal activity concentration (AC50) under setting [2] was 18.4 µM [rising, partial curve, poor fit].

With `Cn1c(CCN2CCN(c3ccccn3)CC2)nc2cc(NC(=O)COc3ccc(Cl)cc3)ccc21`, the cell number change stood at 20.2%. Besides, the concentration at half-maximal activity (AC50) under setting [1] is 2.59 µM [rising, partial curve]. Further, the AC50 under setting [2] is 1.3 µM [rising, full curve].

`COc1ccccc1C(=O)OCC(=O)N1CCC(Cc2ccccc2)CC1`: the cell number change is -6.77%.

With `CC(C(=O)Nc1ccncc1)(c1ccccc1)c1ccccc1`, the cell number change worked out at 7.96%.

As for `Cc1ccc(OCCC(=O)OCC(=O)Nc2ccc(N3CCOCC3)cc2)cc1`, under setting [2], the AC50 was 2.31 µM [falling, partial curve].

On to `Cc1ccc(C(=O)COC(=O)CNC(=O)CNC(=O)c2ccc(C)cc2)cc1`, for which the cell number change was -66.7%. Also, the half-maximal activity concentration (AC50) under setting [1] is 29.1 µM [falling, single point].

Take `COc1ccc(C(=O)/C=C2/C(=O)Nc3ccccc32)cc1`: the cell number change was -37.6%. Further, the concentration at half-maximal activity (AC50) under setting [1] was 14.6 µM [falling, single point]. The AC50 under setting [2] is 20.6 µM [falling, partial curve].

On to `Cc1occc1C(=O)/C(C#N)=C/c1ccc(O)c(Br)c1`, for which the cell number change is -39%. The AC50 under setting [1] is 16.4 µM [falling, single point].

Regarding `Cc1ccsc1/C=C/C(=O)O`, the cell number change is -32.9%. Moreover, the AC50 under setting [2] is 58 µM [falling, partial curve, poor fit].

For the molecule `CC(OC(=O)CCc1cc(C(C)(C)C)c(O)c(C(C)(C)C)c1)C(=O)NC1CC1` (stereo not given), the cell number change was determined as 54.5%. Also, the half-maximal activity concentration (AC50) under setting [1] was 16.4 µM [rising, partial curve].

Regarding `Cc1ccc[n+](CC(=O)c2ccc(-c3ccccc3)cc2)c1`, the cell number change is 16.4%. Moreover, under setting [1], the AC50 is 6.51 µM [falling, single point].

Turning to `CCC1(CC)NC(=O)N(CC(=O)N2CCN(c3ccccc3F)CC2)C1=O`, the cell number change amounted to 3.74%. In addition, the concentration at half-maximal activity (AC50) under setting [2] is 0.517 µM [rising, full curve].

As to `COc1ccccc1C(=O)NC(=S)Nc1cccnc1Cl`, the cell number change was determined as 19.2%.

Turning to `Cc1sc2ncnc(OCC(=O)N3CCN(C(=O)c4ccco4)CC3)c2c1C`, the cell number change came out at 27.5%.

As for `CCOc1cc(C(=O)N2CCC(CC3CC(c4cccc(Br)c4)=NO3)(C(=O)NCC3CCCCC3)CC2)cc(OCC)c1OCC` (stereo not given), the AC50 under setting [2] is 4.11 µM [falling, full curve].

`CC1Cc2ccccc2N1C(=O)COC(=O)/C=C/c1ccc(F)cc1` (stereo not given): the cell number change was -5.1%. Besides, under setting [1], the AC50 was 0.461 µM [rising, single point]. Further, the AC50 under setting [2] was 8.2 µM [falling, partial curve].

On to `CCOC(=O)CN1C(=O)N(CC(=O)OCC)C(c2ccccc2)(c2ccccc2)C1=O`, for which the cell number change is 23.6%. Moreover, the half-maximal activity concentration (AC50) under setting [2] is 29.1 µM [rising, single point].

For `COc1cc(NC(=O)N[C@@H](CCSC)C(=O)O)cc(OC)c1`, the cell number change was -37.9%. Further, under setting [1], the AC50 is 6.51 µM [falling, full curve, poor fit]. Besides, under setting [2], the half-maximal activity concentration (AC50) was 4.11 µM [falling, full curve].

On to `CCOc1ccc(CCNC(=O)C(C)n2nc(C)n3c(cc4occc43)c2=O)cc1OCC` (stereo not given), for which the cell number change is -10.2%. For the same molecule, the AC50 under setting [2] was 0.231 µM [rising, partial curve].

Consider `COc1cccc(NC(=O)CSc2nnc(COc3ccc4c(c3)CCCC4)o2)c1`, for which the cell number change amounted to 47.2%. Also, the AC50 under setting [1] was 20.6 µM [rising, single point]. The concentration at half-maximal activity (AC50) under setting [2] was 1.3 µM [rising, single point].

As for `Cc1ccc(C)c(N2CCN(CCCc3ccccc3)CC2)c1`, the cell number change is -41.4%. Also, the half-maximal activity concentration (AC50) under setting [1] was 20.6 µM [falling, single point]. Further, the AC50 under setting [2] was 16.4 µM [falling, partial curve].

`Cc1cc(Nc2cc(Cl)cc(Cl)c2)nc(N)n1`: the cell number change is -53.7%. Further, the concentration at half-maximal activity (AC50) under setting [1] is 20.6 µM [falling, single point]. Under setting [2], the AC50 is 20.6 µM [falling, single point].

For the molecule `COC(=O)c1c(-c2c(Cl)cccc2Cl)noc1NC(=O)NN1CCCCC1`, the cell number change is -61.1%. In addition, the half-maximal activity concentration (AC50) under setting [1] was 14.6 µM [falling, partial curve, poor fit].

Consider `COc1ccc(CNC(=O)COC(=O)c2ccc(C)c(S(=O)(=O)N3CCOCC3)c2)cc1OC`, for which the cell number change was -43.1%. The concentration at half-maximal activity (AC50) under setting [1] is 14.6 µM [falling, partial curve]. Moreover, the AC50 under setting [2] is 7.31 µM [falling, partial curve].

Turning to `O=C(Nc1ccc(OC(F)(F)F)cc1)c1cnc2n(c1=O)CCS2`, the cell number change worked out at 60.4%. For the same molecule, the half-maximal activity concentration (AC50) under setting [1] was 13 µM [rising, partial curve]. In addition, the concentration at half-maximal activity (AC50) under setting [2] is 13 µM [rising, partial curve].

Consider `O=C(COc1ncnc2ccccc12)NCCCN1CCCC1=O`, for which the cell number change is -14.9%. Also, under setting [2], the half-maximal activity concentration (AC50) was 0.116 µM [falling, full curve].

On to `COc1cc(NC(=S)NCCc2ccc(S(N)(=O)=O)cc2)c(OC)cc1Cl`, for which the cell number change was -22%. Under setting [2], the concentration at half-maximal activity (AC50) is 0.794 µM [falling, full curve].

Turning to `CN1C(=O)/C(=C/c2ccccc2OCc2ccccc2)NC1=S`, the cell number change was -14.3%. Further, under setting [2], the AC50 was 4.61 µM [falling, full curve, poor fit].

As for `CCCC(=O)Nc1ccccc1NC(=O)CN(C)S(=O)(=O)c1ccccc1`, the AC50 under setting [1] was 5.8 µM [falling, partial curve] and the AC50 under setting [2] is 4.11 µM [falling, partial curve].

With `CCCN(CCC)Cc1c(C(=O)N/N=C/C(C)=C\c2ccccc2)nnn1-c1nonc1N`, the cell number change amounted to 30%.

Take `O=C(Nc1cnn(Cc2ccccc2)c1)NC12CC3CC(CC(C3)C1)C2`: the cell number change is -48.8%. The AC50 under setting [1] is 29.1 µM [falling, partial curve, poor fit].
